Results from the supplement of paper PMC12823440, “Inhibitors supercharge kinase turnover through native proteolytic circuits” (Nature, 2025).
Counter-ions that a name gives are not always drawn. This is one part of the list. Hit calls seldom repeat between salt and free forms of one compound.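 Kinases were expressed as nanoluciferase fusions in K562 cells and luminescence was read every 4 h between 2 and 18 h as percent of control, DMSO set to 100% and a positive control to 0%. A time point counts as decreased when the signal drops significantly (2 sigma). The hit call is the authors' own, does not follow from the count of time points alone, and its rule is not shown.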

By UniProt entry, the sequences of proteins in these tests, tags left out. Where a name states a change or a piece, a line headed by the entry shows the natural chain unless it says otherwise.
UniProt P28482, whole entry: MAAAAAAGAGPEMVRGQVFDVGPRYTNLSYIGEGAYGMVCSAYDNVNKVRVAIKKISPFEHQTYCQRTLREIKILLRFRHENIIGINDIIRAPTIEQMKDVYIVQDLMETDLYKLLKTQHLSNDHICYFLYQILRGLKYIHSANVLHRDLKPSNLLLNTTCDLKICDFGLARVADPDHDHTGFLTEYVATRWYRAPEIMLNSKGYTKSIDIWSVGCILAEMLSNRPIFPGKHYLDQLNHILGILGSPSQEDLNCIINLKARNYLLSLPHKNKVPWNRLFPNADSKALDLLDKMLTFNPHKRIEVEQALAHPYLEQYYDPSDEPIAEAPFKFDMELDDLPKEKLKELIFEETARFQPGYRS
UniProt P31152, whole entry: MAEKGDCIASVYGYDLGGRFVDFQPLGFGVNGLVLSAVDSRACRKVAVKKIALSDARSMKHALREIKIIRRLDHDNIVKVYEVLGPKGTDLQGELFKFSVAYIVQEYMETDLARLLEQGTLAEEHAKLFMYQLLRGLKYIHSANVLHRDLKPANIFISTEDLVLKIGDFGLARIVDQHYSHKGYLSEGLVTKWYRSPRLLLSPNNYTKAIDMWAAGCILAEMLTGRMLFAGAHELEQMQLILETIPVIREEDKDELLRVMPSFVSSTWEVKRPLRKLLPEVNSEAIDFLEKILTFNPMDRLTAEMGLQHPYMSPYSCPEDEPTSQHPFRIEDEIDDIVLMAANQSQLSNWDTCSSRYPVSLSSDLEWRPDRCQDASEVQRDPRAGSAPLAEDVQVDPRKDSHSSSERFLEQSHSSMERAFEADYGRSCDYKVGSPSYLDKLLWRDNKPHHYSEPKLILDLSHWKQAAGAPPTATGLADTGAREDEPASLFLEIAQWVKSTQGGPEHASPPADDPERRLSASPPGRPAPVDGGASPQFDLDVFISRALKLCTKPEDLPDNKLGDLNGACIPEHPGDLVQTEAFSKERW
UniProt P49137, whole entry, looked up: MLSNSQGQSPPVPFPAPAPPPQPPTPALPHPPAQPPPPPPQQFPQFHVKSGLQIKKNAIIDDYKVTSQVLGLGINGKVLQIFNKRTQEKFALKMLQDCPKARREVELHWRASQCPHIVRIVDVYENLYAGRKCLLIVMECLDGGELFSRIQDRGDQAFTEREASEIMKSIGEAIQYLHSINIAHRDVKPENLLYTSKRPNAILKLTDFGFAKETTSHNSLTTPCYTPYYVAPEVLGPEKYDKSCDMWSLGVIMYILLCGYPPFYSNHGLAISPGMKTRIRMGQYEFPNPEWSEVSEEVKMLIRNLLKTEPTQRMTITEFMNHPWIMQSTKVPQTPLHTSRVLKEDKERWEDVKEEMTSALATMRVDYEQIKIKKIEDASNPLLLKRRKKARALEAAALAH
UniProt Q9BUB5: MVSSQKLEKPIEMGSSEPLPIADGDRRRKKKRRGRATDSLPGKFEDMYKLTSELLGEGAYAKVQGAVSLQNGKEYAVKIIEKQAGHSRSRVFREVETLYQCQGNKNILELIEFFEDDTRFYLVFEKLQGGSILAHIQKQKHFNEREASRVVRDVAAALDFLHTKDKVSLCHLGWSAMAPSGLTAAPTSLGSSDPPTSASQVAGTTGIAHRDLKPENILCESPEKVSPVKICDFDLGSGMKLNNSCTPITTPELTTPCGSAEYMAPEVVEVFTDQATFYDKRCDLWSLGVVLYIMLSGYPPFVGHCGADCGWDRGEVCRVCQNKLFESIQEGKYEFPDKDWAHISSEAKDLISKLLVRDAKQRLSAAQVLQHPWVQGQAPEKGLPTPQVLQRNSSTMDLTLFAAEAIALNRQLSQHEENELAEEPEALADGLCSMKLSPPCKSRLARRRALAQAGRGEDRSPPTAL
UniProt Q16620, whole entry, looked up: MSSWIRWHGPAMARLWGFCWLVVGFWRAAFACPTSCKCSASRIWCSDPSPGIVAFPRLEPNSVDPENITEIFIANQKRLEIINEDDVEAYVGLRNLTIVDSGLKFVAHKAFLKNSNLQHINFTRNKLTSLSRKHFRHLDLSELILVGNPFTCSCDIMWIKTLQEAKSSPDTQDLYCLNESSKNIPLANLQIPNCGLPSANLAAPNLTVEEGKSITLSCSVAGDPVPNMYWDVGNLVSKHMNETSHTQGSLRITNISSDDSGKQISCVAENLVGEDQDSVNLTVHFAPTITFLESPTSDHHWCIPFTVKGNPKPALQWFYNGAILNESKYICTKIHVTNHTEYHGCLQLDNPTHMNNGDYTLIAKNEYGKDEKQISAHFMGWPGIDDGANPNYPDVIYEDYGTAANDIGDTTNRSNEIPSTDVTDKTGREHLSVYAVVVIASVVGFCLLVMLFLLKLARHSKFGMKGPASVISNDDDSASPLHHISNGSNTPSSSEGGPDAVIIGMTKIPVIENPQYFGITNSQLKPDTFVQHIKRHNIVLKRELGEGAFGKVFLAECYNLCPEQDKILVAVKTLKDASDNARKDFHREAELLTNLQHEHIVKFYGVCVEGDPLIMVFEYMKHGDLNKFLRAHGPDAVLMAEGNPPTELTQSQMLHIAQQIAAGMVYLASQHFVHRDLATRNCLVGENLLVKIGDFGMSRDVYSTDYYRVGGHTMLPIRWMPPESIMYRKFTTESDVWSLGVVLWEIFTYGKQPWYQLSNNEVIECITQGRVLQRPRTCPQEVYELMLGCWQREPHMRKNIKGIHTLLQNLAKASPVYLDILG
UniProt Q16288, whole entry, looked up: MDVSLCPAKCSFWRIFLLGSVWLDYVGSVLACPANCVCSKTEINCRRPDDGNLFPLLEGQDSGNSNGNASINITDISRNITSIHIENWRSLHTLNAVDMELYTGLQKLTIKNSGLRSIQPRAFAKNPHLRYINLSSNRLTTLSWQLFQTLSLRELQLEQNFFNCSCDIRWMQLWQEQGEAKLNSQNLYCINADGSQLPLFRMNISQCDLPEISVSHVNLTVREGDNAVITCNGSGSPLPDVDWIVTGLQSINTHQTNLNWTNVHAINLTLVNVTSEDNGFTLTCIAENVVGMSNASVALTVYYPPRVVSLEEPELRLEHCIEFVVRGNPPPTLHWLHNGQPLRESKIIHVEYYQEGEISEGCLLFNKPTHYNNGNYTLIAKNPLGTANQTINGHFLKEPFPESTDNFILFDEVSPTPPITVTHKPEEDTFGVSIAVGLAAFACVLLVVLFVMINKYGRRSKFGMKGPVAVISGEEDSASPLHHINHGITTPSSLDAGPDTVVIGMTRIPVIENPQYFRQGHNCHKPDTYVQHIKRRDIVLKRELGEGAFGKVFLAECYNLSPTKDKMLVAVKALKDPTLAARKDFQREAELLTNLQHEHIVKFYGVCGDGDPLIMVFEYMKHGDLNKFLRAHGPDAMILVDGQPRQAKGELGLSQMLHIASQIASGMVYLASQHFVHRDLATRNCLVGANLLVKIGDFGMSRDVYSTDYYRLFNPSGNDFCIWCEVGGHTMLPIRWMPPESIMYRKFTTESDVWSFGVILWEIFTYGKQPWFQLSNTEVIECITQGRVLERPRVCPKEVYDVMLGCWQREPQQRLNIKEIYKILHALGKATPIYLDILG
UniProt O96013: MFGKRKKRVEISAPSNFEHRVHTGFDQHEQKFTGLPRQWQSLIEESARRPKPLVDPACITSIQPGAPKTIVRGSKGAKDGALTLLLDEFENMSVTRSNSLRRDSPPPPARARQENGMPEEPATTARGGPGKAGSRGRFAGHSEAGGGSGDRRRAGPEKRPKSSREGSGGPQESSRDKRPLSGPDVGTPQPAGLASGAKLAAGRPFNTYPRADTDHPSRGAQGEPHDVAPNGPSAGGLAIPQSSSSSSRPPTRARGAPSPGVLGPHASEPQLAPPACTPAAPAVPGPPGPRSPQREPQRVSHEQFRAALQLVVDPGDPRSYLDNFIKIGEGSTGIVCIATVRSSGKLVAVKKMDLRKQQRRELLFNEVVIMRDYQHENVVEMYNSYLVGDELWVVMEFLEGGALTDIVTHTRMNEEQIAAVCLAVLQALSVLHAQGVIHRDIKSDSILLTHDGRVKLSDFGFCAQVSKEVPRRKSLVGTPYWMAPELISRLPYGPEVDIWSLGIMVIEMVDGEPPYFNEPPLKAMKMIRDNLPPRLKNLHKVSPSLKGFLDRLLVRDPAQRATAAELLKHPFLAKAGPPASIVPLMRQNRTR
UniProt Q96KB5: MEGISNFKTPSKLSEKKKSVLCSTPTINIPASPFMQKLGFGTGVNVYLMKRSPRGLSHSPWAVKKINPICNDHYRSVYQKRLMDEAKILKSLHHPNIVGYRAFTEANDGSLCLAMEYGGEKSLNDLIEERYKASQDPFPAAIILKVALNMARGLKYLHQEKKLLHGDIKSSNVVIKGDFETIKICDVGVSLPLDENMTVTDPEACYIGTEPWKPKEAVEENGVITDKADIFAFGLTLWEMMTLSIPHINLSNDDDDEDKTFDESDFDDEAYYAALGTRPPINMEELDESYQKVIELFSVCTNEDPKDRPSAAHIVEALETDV
UniProt P09619, whole entry: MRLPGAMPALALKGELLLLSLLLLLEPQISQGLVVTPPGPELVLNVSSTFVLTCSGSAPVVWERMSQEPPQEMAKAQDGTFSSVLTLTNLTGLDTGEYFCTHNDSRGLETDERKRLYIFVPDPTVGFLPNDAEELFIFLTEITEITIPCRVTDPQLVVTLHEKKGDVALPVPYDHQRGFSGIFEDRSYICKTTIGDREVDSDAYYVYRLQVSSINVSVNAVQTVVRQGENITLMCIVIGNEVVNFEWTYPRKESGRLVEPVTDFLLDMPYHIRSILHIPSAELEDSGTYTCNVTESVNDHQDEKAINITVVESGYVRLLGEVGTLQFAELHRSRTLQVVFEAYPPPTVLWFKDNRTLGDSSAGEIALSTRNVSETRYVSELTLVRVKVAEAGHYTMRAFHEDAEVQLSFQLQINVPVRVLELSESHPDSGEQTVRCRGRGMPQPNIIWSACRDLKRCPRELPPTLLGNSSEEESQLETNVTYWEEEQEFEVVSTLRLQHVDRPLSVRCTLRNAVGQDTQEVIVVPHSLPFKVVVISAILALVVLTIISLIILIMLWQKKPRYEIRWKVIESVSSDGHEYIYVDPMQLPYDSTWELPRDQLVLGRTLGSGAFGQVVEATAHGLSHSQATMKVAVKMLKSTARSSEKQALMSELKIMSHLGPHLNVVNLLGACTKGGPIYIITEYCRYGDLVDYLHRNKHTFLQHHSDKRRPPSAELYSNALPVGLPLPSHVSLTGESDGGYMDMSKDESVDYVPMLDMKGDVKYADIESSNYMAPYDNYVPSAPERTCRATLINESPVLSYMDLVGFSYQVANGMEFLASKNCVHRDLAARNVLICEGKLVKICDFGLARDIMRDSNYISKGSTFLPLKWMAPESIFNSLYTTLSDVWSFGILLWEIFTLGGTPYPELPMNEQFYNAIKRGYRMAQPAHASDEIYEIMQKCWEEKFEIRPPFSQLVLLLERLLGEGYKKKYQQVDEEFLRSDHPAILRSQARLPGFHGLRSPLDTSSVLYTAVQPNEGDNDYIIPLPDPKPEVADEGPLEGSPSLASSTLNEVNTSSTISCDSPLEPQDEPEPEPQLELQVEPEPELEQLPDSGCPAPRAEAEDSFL
UniProt Q15118, whole entry, looked up: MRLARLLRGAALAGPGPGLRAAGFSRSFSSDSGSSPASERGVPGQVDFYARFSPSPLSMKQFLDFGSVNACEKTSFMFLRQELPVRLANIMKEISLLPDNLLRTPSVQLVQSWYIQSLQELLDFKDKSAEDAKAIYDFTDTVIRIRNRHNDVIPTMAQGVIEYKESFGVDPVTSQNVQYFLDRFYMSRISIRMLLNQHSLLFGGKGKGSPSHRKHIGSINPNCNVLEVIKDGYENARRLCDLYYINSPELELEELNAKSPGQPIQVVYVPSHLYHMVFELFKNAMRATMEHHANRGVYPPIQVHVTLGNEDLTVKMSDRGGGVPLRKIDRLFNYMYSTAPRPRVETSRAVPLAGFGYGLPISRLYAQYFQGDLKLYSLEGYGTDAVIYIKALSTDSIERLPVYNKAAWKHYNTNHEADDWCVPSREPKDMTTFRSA

Columns and labels:
Experiment in all cases: kinase-Nluc reporter destabilization hit call (1 = scored as downregulated) (binary); higher = compound decreases kinase abundance
Conditions in all cases: K562; 2-18 h
[1] = molecular target: MAPK1 (UniProt P28482)
[2] = molecular target: MAPK4 (UniProt P31152)
[3] = molecular target: MAPKAPK2 (UniProt P49137)
[4] = molecular target: MKNK1 (UniProt Q9BUB5)
[5] = molecular target: NTRK2 (UniProt Q16620)
[6] = molecular target: NTRK3 (UniProt Q16288)
[7] = molecular target: PAK4 (UniProt O96013)
[8] = molecular target: PBK (UniProt Q96KB5)
[9] = molecular target: PDGFRB (UniProt P09619)
[10] = molecular target: PDK1 (UniProt Q15118)

Measured: kinase-Nluc reporter destabilization hit call

CCOc1ccn(-c2ccc(F)cc2)c(=O)c1C(=O)Nc1ccc(Oc2ccnc(N)c2Cl)c(F)c1 (10 µM)
inactive: [1] 0 | [2] 0 | [3] 0 | [4] 0 | [5] 0 | [6] 0 | [7] 0 | [8] 0 | [9] 0 | [10] 0

O=c1cc(N2CCOCC2)oc2c(-c3ccccc3)cccc12 (10 µM)
inactive: [1] 0 | [2] 0 | [3] 0 | [4] 0 | [5] 0 | [6] 0 | [7] 0 | [8] 0 | [9] 0 | [10] 0

Nc1nc(N)c(N=O)c(OCC2CCCCC2)n1 (10 µM)
inactive: [1] 0 | [2] 0 | [3] 0 | [4] 0 | [5] 0 | [6] 0 | [7] 0 | [8] 0 | [9] 0 | [10] 0

COc1cc(OC)cc(N(CCNC(C)C)c2ccc3ncc(-c4cnn(C)c4)nc3c2)c1 [Erdafitinib] (2.5 µM)
inactive: [1] 0 | [2] 0 | [3] 0 | [4] 0 | [5] 0 | [6] 0 | [7] 0 | [8] 0 | [9] 0 | [10] 0

C=CC(=O)Nc1ccc2ncnc(Nc3cccc(Br)c3)c2c1 (10 µM)
inactive: [1] 0 | [2] 0 | [3] 0 | [4] 0 | [5] 0 | [6] 0 | [7] 0 | [8] 0 | [9] 0 | [10] 0

CCOc1cc2ncc(-c3cc(N)nc(F)c3)n2cc1S(=O)(=O)C(C)(C)C (10 µM)
inactive: [1] 0 | [2] 0 | [3] 0 | [4] 0 | [5] 0 | [6] 0 | [7] 0 | [8] 0 | [9] 0 | [10] 0

Brc1c(Br)c(Br)c2n[nH]nc2c1Br (10 µM)
inactive: [1] 0 | [2] 0 | [3] 0 | [4] 0 | [5] 0 | [6] 0 | [7] 0 | [8] 0 | [9] 0 | [10] 0

N#C/C(=C\c1ccc(O)c(O)c1)C(=O)NCCCc1ccccc1 (10 µM)
inactive: [1] 0 | [2] 0 | [3] 0 | [4] 0 | [5] 0 | [6] 0 | [7] 0 | [8] 0 | [9] 0 | [10] 0

CCn1c(=O)c2cc(C(N)=O)c(N)nc2n(C2CC2)c1=O (10 µM)
inactive: [1] 0 | [2] 0 | [3] 0 | [4] 0 | [5] 0 | [6] 0 | [7] 0 | [8] 0 | [9] 0 | [10] 0

COc1cc2ncnc(Nc3cccc(O)c3)c2cc1OC (10 µM)
inactive: [1] 0 | [2] 0 | [3] 0 | [4] 0 | [5] 0 | [6] 0 | [7] 0 | [8] 0 | [9] 0 | [10] 0

O=c1c(O)c(-c2ccc(O)c(O)c2)oc2cc(O)cc(O)c12 [Quercetin (dihydrate)] (10 µM)
inactive: [1] 0 | [2] 0 | [3] 0 | [4] 0 | [5] 0 | [6] 0 | [7] 0 | [8] 0 | [9] 0 | [10] 0

CCN1CCN(Cc2ccc(C(=O)Nc3ccc(C)c(Oc4ccc5c(c4)CC(=O)N5)c3)cc2C(F)(F)F)CC1 (2.5 µM)
inactive: [1] 0 | [2] 0 | [3] 0 | [4] 0 | [5] 0 | [6] 0 | [7] 0 | [8] 0 | [9] 0 | [10] 0

CN(C)C(=O)/C(C#N)=C/c1ccc(-c2nc3cnc4[nH]ccc4c3n2C2CCCCC2)o1 (10 µM)
inactive: [1] 0 | [2] 0 | [3] 0 | [4] 0 | [5] 0 | [6] 0 | [7] 0 | [8] 0 | [9] 0 | [10] 0

Cc1cc(F)c(C(=O)Nc2cccc(-c3nncn3C(C)C)n2)cc1-n1cnc(C2CC2)c1 [Selonsertib] (10 µM)
inactive: [1] 0 | [2] 0 | [3] 0 | [4] 0 | [5] 0 | [6] 0 | [7] 0 | [8] 0 | [9] 0 | [10] 0

Cc1nc(N)sc1-c1ccnc(Nc2ccc(N3CCOCC3)cc2)n1 (10 µM)
inactive: [1] 0 | [2] 0 | [3] 0 | [4] 0 | [5] 0 | [6] 0 | [7] 0 | [8] 0 | [9] 0 | [10] 0

CC(C)(C)n1nc(Cc2cccc3ccccc23)c2c(N)ncnc21 (10 µM)
inactive: [1] 0 | [2] 0 | [3] 0 | [4] 0 | [5] 0 | [6] 0 | [7] 0 | [8] 0 | [9] 0 | [10] 0

COc1ccc(Oc2cc(NCCC(F)(F)F)c3ncc(-c4ccc(C(=O)NC5CC5)c(C)c4)n3n2)c(F)c1F (2.5 µM)
inactive: [1] 0 | [2] 0 | [3] 0 | [4] 0 | [5] 0 | [6] 0 | [7] 0 | [8] 0 | [9] 0 | [10] 0

Cc1cc(C(=O)Nc2cccc(C(=O)Nc3cccc(C(F)(F)F)c3)c2)on1 (10 µM)
inactive: [1] 0 | [2] 0 | [3] 0 | [4] 0 | [5] 0 | [6] 0 | [7] 0 | [8] 0 | [9] 0 | [10] 0

NC(=O)c1ccc(-c2nc(-c3ccccn3)c(-c3ccc4c(c3)OCO4)[nH]2)cc1 (10 µM)
inactive: [1] 0 | [2] 0 | [3] 0 | [4] 0 | [5] 0 | [6] 0 | [7] 0 | [8] 0 | [9] 0 | [10] 0

COC(=O)c1ccc2c(C(=Nc3ccc(N(C)C(=O)CN4CCN(C)CC4)cc3)c3ccccc3)c(O)[nH]c2c1 [Nintedanib] (2.5 µM)
inactive: [1] 0 | [2] 0 | [3] 0 | [4] 0 | [5] 0 | [6] 0 | [7] 0 | [8] 0 | [9] 0 | [10] 0

COc1cc(C(=O)NC2CCN(C)CC2)ccc1Nc1ncc2c(n1)N(C1CCCC1)CC(F)(F)C(=O)N2C (10 µM)
inactive: [1] 0 | [2] 0 | [3] 0 | [4] 0 | [5] 0 | [6] 0 | [7] 0 | [8] 0 | [9] 0 | [10] 0

COc1cc(N2CCC(N)CC2)ccc1Nc1ncc(Cl)c(-c2c[nH]c3ccccc23)n1 (2.5 µM)
inactive: [1] 0 | [2] 0 | [3] 0 | [4] 0 | [5] 0 | [6] 0 | [7] 0 | [8] 0 | [9] 0 | [10] 0

CN(C)C[C@@H]1CCn2cc(c3ccccc32)C2=C(C(=O)NC2=O)c2cn(c3ccccc23)CCO1 [Ruboxistaurin (hydrochloride)] (10 µM)
inactive: [1] 0 | [2] 0 | [3] 0 | [4] 0 | [5] 0 | [6] 0 | [7] 0 | [8] 0 | [9] 0 | [10] 0

CC1(C)CC=C(c2nc(C3CC(C)(C)OC(C)(C)C3)ccc2NC(=O)c2nc(C#N)c[nH]2)CC1 [Edicotinib] (2.5 µM)
inactive: [1] 0 | [2] 0 | [3] 0 | [4] 0 | [5] 0 | [6] 0 | [7] 0 | [8] 0 | [9] 0 | [10] 0

Ordered by number of heavy atoms (largest number first): 3 of the compounds above.
COC(=O)c1ccc2c(C(=Nc3ccc(N(C)C(=O)CN4CCN(C)CC4)cc3)c3ccccc3)c(O)[nH]c2c1 [Nintedanib] (2.5 µM)
inactive: [1] 0 | [2] 0 | [3] 0 | [4] 0 | [5] 0 | [6] 0 | [7] 0 | [8] 0 | [9] 0 | [10] 0

CC1(C)CC=C(c2nc(C3CC(C)(C)OC(C)(C)C3)ccc2NC(=O)c2nc(C#N)c[nH]2)CC1 [Edicotinib] (2.5 µM)
inactive: [1] 0 | [2] 0 | [3] 0 | [4] 0 | [5] 0 | [6] 0 | [7] 0 | [8] 0 | [9] 0 | [10] 0

COc1cc(N2CCC(N)CC2)ccc1Nc1ncc(Cl)c(-c2c[nH]c3ccccc23)n1 (2.5 µM)
inactive: [1] 0 | [2] 0 | [3] 0 | [4] 0 | [5] 0 | [6] 0 | [7] 0 | [8] 0 | [9] 0 | [10] 0

Following part.

COc1cc2c(Nc3ccc(NC(=O)c4ccccc4)cc3)ncnc2cc1OCCCN1CCOCC1 (10 µM)
inactive: [1] 0 | [2] 0 | [3] 0 | [4] 0 | [5] 0 | [6] 0 | [7] 0 | [8] 0 | [9] 0 | [10] 0

COc1cc2nc(C)nc(N[C@H](C)c3cc(N)cc(C(F)(F)F)c3)c2cc1O[C@H]1CCOC1 (10 µM)
inactive: [1] 0 | [2] 0 | [3] 0 | [4] 0 | [5] 0 | [6] 0 | [7] 0 | [8] 0 | [9] 0 | [10] 0

Cc1cccc(Cn2nc(C3CC3)c3c(NC(=O)c4cnc5cc(OCCN6CCN(C)CC6)ccn45)cccc32)n1 (10 µM)
inactive: [1] 0 | [2] 0 | [3] 0 | [4] 0 | [5] 0 | [6] 0 | [7] 0 | [8] 0 | [9] 0 | [10] 0

CC[C@H](CO)Nc1nc(NCc2ccccc2)c2ncn(C(C)C)c2n1 [Seliciclib] (10 µM)
inactive: [1] 0 | [2] 0 | [3] 0 | [4] 0 | [5] 0 | [6] 0 | [7] 0 | [8] 0 | [9] 0 | [10] 0

Cc1ncc(-c2ccnc(Nc3ccc(S(C)(=O)=O)cc3)n2)n1C(C)C (2.5 µM)
inactive: [1] 0 | [2] 0 | [3] 0 | [4] 0 | [5] 0 | [6] 0 | [7] 0 | [8] 0 | [9] 0 | [10] 0
